# According to US20250019400A1 (SHENZHEN WINKEY TECHNOLOGY CO., LTD, priority 2022, published 2025):
# Assay: general procedure: peptide synthesis; Amide Resin
# Conditions: whole synthesis, scale of the general procedure 5 g resin
row,Substance,final purity (method not given) [%]
1,Ac-SMGALA-NH2,99.4
2,Ac-VKVLQW-NH2,98
3,Ac-WAAPFLRA-NH2,98
